For ten substances, binding results are on record in PMC12276006, “Structural basis for sensitivity and acquired resistance of fungal cap guanine-N7 methyltransferases to the antifungal antibiotic sinefungin” (Nucleic Acids Research, 2025).

Protein sequences, listed by entry. Tags and fused reporters are not part of them. Lines headed by an entry give the natural chain unless they say otherwise; changes in a name come on top.
UniProt P32783: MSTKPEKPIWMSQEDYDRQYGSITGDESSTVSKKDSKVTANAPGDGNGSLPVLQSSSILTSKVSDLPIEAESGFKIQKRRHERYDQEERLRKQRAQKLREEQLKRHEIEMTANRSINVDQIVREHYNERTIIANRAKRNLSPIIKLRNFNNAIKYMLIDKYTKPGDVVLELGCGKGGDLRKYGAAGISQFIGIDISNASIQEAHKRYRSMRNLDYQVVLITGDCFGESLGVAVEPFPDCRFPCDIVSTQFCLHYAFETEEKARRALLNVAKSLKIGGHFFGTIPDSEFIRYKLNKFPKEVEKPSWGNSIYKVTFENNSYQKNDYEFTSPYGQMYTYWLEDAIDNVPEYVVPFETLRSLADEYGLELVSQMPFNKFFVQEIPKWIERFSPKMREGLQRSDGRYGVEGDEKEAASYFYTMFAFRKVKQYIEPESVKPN
UniProt Q6CKI0: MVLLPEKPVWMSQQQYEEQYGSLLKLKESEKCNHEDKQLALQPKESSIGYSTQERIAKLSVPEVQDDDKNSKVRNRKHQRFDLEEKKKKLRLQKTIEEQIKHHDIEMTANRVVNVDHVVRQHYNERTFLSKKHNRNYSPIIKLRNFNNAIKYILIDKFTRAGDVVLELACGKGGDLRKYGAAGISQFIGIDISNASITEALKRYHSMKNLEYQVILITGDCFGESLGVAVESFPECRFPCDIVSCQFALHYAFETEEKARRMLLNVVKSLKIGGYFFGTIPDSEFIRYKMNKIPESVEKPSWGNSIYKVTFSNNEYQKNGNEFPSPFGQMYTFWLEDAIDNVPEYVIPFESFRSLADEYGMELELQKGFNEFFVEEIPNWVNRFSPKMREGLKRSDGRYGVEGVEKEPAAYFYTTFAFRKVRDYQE

Results are given in words; binding and its absence hold for the method and conditions named.

What all share (test): SEC; analytical size exclusion chromatography, Superdex S200 (10/300), 20 mM HEPES pH 7.5, 150 mM NaCl, 5 mM βME, 0.75 ml/min, calibrated with Bio-Rad gel filtration standards; both purified
In experiment [1] the target is ScAbd1-Y416N-R422H, His10 fusion (Saccharomyces cerevisiae) (UniProt P32783).
The target in experiment [2] is Saccharomyces cerevisiae cap methyltransferase Abd1, wild type, His10 fusion (aa 1-436) (Saccharomyces cerevisiae) (UniProt P32783).
Experiment [3] deals with ScAbd1-Y416A, His10 fusion (Saccharomyces cerevisiae) (UniProt P32783).
For experiment [4], the target named is KlAbd1-(138-426) (Kluyveromyces lactis) (UniProt Q6CKI0).
The target in experiment [5] is ScAbd1-(120-436) (Saccharomyces cerevisiae) (UniProt P32783).
For experiment [6], the target named is ScAbd1-E124K-K163R-K311R-F387Y-Y416F, His10 fusion (Saccharomyces cerevisiae) (UniProt P32783).
The target of experiment [7] is Kluyveromyces lactis cap methyltransferase Abd1, full length (aa 1-426) (Kluyveromyces lactis) (UniProt Q6CKI0).
For experiment [8], the target named is KlAbd1-(117-426) (Kluyveromyces lactis) (UniProt Q6CKI0).
For experiment [9], the target named is ScAbd1-(141-436) (Saccharomyces cerevisiae) (UniProt P32783).
Experiment [10] deals with ScAbd1-L59P-Y416C, His10 fusion (Saccharomyces cerevisiae) (UniProt P32783).

For “ScAbd1-Y416N-R422H, His10 fusion (from UniProt P32783 1-436) (enzyme)”, the binding entry in experiment [1] is “no binding”.
On to “Saccharomyces cerevisiae cap methyltransferase Abd1, wild type, His10 fusion (aa 1-436) (from UniProt P32783 1-436) (enzyme)”, for which the binding entry in [2] was “no binding”.
As for “ScAbd1-Y416A, His10 fusion (from UniProt P32783 1-436) (enzyme)”, the binding entry in experiment [3] is reported as “no binding”.
As to “KlAbd1-(138-426) (from UniProt Q6CKI0 138-426) (domain or fragment)”, the binding result in [4] is reported as “no binding”.
Consider “ScAbd1-(120-436) (from UniProt P32783 120-436) (domain or fragment)”, for which the binding result in experiment [5] is on record as “no binding”.
In the case of “ScAbd1-E124K-K163R-K311R-F387Y-Y416F, His10 fusion (from UniProt P32783 1-436) (enzyme)”, in experiment [6], the binding entry is on record as “no binding”.
Take “Kluyveromyces lactis cap methyltransferase Abd1, full length (aa 1-426) (from UniProt Q6CKI0 1-426) (enzyme)”: the binding entry in [7] is “no binding”.
As for “KlAbd1-(117-426) (from UniProt Q6CKI0 117-426) (domain or fragment)”, in experiment [8], the binding result is on record as “no binding”.
Regarding “ScAbd1-(141-436) (from UniProt P32783 141-436) (domain or fragment)”, in experiment [9], the binding entry is on record as “no binding”.
For “ScAbd1-L59P-Y416C, His10 fusion (from UniProt P32783 1-436) (enzyme)”, in [10], the binding entry is listed as “no binding”.
